In article PMC4270438 one finds binding data, which are given here for 1 molecule.

For this experiment, the target named is SCL (wild type human SCL, short isoform p22) (human). In words: co-IP; thymocyte extracts immunoprecipitated with the indicated antibodies, followed by western blotting. (A western blot detects proteins with antibodies after separation by electrophoresis.)

Results are given in words; binding and its absence hold for the method and conditions named. In cells and extracts the contact can be indirect. A result given as binding can be weak or reduced; the word gives no strength.

B1: LMO1 (protein, UniProt P25800 1-156)
chain: MMVLDKEDGVPMLSVQPKGKQKGCAGCNRKIKDRYLLKALDKYWHEDCLKCACCDCRLGEVGSTLYTKANLILCRRDYLRLFGTTGNCAACSKLIPAFEMVMRARDNVYHLDCFACQLCNQRFCVGDKFFLKNNMILCQMDYEEGQLNGTFESQVQ
In the case of B1, the binding result was “binds”.
